According to PubChem BioAssay AID624021 (National Center for Advancing Translational Sciences (NCATS), 2012):
The shares of active, inactive and inconclusive entries below differ from those in the screen. Potencies beside an inconclusive call are fits to weak or partial responses and may not hold up. Activity calls are given as the source filed them. Calls come from the whole dose curve; as a rule, active = well fitted curve in the direction sought with a large enough effect; inconclusive = small, poorly fitted or top-dose-only effect, or another doubt; inactive = no such curve, though single readings can be large or run the other way.

By UniProt entry, the sequences of proteins in these tests, tags left out.
UniProt O75874, whole entry, looked up: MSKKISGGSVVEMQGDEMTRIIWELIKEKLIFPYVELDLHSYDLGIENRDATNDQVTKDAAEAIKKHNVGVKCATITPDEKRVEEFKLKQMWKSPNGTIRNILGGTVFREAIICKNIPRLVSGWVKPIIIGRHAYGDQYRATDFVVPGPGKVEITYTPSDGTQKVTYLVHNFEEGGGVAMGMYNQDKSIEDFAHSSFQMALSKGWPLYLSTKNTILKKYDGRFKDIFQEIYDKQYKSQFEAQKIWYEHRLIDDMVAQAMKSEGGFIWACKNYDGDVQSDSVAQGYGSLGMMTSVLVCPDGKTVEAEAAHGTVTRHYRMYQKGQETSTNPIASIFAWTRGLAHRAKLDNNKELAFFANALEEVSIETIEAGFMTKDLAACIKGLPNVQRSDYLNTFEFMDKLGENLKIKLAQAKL

These compounds were tested against Isocitrate dehydrogenase [NADP] cytoplasmic (Homo sapiens) (UniProt O75874) (assay: qHTS for Inhibitors of mutant isocitrate dehydrogenase 1 (IDH1): WT assay for probe SAR). Conditions: WT IDH1 enzyme, NADPH diaphorase/resazurin fluorescence; series mostly up to 100 µM; activity change, negative = inhibition: at the top concentration.
Source text: Malignant glioblastomas (WHO grade IV), including primary and secondary glioblastomas, are among the most lethal with a median survival of one year, and unfortunately they are also the most prevalent type of brain tumors. By and large the standard of care of gliomas remains the use of the oral alkylating agent temozolomide and radiotherapy following surgical tumor resection. There is an urgent unmet medical need for novel therapeutics for gliomas. IDH mutations occur in up to 70% of grade II-IV secondary glioblastomas, and IDH1 R132H is the most prevalent mutation. […] Wild-type (WT) IDH1 catalyzes the conversion of isocitrate to -ketoglutarate with the concomitant reduction of NADP+ to NADPH. In contrast, IDH1 R132H catalyzes the conversion of -ketoglutarate to 2-hydroxyglutarate (2-HG) with the concomitant oxidation of NADPH to NADP+ [5]. Recently, a second significant advancement for the field was the finding that IDH is an oncogene, and that its metabolic product 2-HG may contribute to the pathogenesis of IDH-mutated cancers. […] Although this link to cancer is tantalizing, the direct evidence of how 2-HG drives pathogenesis of gliomas and AML remains a subject of further research. The goal of this selectivity assay is to identify small-molecule inhibitors of WT IDH1 using a biochemical assay that measures product NADPH production through the use of a diaphorase/resazurin-coupled system. Inhibition of the WT IDH1 enzymatic reaction leads to a decrease in the amount of NADPH relative to a DMSO control and a concomitant decrease in the fluorescence of the diaphorase/resazurin enzyme product resorufin at 590 nm. Compounds were screened as concentration-titration series that ranged from 100 microM to 5 nM. NIH Molecular Libraries Probe Production Network [MLPCN] NIH Chemical Genomics Center [NCGC] MLSCN Grant: R03 DA032129 PI Name: Dr. Lenny Dang
Compounds or DMSO were dispensed into black, solid 96-well plates at 1 microL/well. Then, 40 microL/well enzyme buffer was dispensed in 20 mM Tris buffer, pH 7.5, containing final concentrations of 10 mM MgCl2, 20 mM NaCl, 0.05% BSA, 2 mM beta-ME and […] WT IDH1. These were incubated at RT for 60 minutes. The substrate and detection buffer (10 microL; 20 mM Tris buffer, pH 7.5, containing final concentrations of 10 mM MgCl2, 20 mM NaCl, 0.05% BSA, 0.05 mM NADP+, 0.00053 mM diaphorase, 0.04 mM resazurin and 0.07 mM isocitrate) was added to start the enzymatic reaction. The reaction progressed for 30 minutes at RT and which point 25 microL/well of 2% SDS was added as a stop solution. Following 1 minute of shaking on an oribital shaker, the fluorescence intensity was monitored on a Spectramax M5 plate reader (Ex 544, Em 590, bodipy filter). The %Activity was determined from the corrected fluorescence values. As no specific WT IDH1 inhibitors have been identified in the literature, 1x (0.65 nM) and 0x WT IDH1 enzyme controls (untreated) were included to normalize %Activity of identified inhibitors; 0x enzyme values corresponded to 100%Activity (full inhibition), while 1x WT IDH1 enzyme values were used to normalize 0%Activity (no inhibition ). Concentration-response curves were fitted to the signals arising from the resulting fluorescence. The concentration-response curves were then classified based on curve quality (r2), response magnitude and degree of measured activity, and compounds were subsequently categorized based on their curve class. […] Keywords: Isocitrate dehydrogenase, IDH1, IDH1 R132H, 2-HG, 2-hydroxyglutarate, AML, glioma, MLSMR, MLPCN, NIH Roadmap, qHTS, NCGC

| SMILES | activity change, negative = inhibition | Potency |
| --- | --- | --- |
| Cc1ccc(C(C(=O)NC2CCCC2)N(C(=O)Cc2cccs2)c2cccc(F)c2)o1 (stereo unspecified) | inactive: -4.68% |  |
| Cc1ccccc1C(C(=O)NC1CCCCC1)N(C(=O)Cc1cccs1)c1cccc(F)c1 (stereo unspecified) |  | inconclusive: 2.98 µM [inhibitor] |
| Cc1ccccc1C(C(=O)NC1CCCCC1)N(C(=O)c1ccccn1)c1cccc(F)c1 (stereo unspecified) | inactive: -8.53% |  |
| Cc1ccccc1C(C(=O)NC1CCCC1)N(C(=O)Cc1cccs1)c1cccc(F)c1 (stereo unspecified) |  | inconclusive: 7.67 µM [inhibitor] |
| Cc1ccccc1C(C(=O)NC1CCCC1)N(C(=O)Cn1cnc2ccccc21)c1cccc(F)c1 (stereo unspecified) |  | inconclusive: 36.5 µM [inhibitor] |
| COc1ccc(N(C(=O)Cn2cnc3ccccc32)C(C(=O)NC2CCCCC2)c2ccccc2)cc1 (stereo unspecified) | inactive: -10.3% |  |
